Data published in the supplement of paper PMC12823440, “Inhibitors supercharge kinase turnover through native proteolytic circuits” (Nature, 2025).
Where a name gives a salt, the structure may show the parent alone. The list shows a part of the results. Hit calls seldom repeat between salt and free forms of one compound.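 In K562 cells expressing nanoluciferase-fused kinases, luminescence was recorded at 4 h intervals between 2 and 18 h, normalized as percent of control with DMSO at 100% and a positive control at 0%. A significant (2 sigma) signal drop marks a time point as decreased. The authors' rule for a hit is not shown and takes in more than the number of time points.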

Sequences of proteins named here, by UniProt entry; tags and fusion partners are left off. A change or cut given only in a name is not applied to a line headed by its entry.
UniProt P21860, whole entry: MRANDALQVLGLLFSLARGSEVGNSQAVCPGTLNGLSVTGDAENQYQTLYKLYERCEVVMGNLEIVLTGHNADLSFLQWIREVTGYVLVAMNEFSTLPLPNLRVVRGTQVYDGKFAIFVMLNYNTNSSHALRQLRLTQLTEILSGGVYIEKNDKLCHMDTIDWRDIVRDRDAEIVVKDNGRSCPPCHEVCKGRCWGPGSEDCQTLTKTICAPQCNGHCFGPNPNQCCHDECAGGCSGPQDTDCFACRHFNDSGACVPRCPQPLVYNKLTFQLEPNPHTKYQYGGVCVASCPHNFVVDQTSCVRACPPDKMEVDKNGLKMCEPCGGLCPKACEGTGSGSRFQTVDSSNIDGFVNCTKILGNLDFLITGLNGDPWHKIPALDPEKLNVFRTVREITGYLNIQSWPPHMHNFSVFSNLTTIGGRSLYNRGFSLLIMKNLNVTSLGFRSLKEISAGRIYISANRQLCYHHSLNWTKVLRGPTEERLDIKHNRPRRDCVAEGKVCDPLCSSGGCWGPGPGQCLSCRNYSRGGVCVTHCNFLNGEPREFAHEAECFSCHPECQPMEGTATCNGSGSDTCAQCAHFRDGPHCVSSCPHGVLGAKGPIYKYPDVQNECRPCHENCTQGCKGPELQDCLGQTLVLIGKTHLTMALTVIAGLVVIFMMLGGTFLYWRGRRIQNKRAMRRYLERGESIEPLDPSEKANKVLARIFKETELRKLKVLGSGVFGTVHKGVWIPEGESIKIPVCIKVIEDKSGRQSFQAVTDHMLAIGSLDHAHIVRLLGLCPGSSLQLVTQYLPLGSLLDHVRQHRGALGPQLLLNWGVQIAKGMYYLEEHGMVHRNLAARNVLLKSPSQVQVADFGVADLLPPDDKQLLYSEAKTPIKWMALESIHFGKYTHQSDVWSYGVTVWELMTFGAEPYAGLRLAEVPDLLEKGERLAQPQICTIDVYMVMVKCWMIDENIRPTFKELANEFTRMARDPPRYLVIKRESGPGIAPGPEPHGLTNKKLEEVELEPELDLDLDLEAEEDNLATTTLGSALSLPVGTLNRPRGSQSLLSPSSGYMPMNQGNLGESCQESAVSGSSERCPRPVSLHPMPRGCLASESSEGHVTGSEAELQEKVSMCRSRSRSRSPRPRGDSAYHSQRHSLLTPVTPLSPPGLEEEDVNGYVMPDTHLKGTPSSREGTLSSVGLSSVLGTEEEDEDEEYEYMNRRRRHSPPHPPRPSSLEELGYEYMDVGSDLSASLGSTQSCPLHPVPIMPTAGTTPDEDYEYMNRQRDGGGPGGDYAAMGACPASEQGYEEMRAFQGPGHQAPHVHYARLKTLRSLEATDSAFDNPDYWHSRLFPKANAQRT
UniProt O75460: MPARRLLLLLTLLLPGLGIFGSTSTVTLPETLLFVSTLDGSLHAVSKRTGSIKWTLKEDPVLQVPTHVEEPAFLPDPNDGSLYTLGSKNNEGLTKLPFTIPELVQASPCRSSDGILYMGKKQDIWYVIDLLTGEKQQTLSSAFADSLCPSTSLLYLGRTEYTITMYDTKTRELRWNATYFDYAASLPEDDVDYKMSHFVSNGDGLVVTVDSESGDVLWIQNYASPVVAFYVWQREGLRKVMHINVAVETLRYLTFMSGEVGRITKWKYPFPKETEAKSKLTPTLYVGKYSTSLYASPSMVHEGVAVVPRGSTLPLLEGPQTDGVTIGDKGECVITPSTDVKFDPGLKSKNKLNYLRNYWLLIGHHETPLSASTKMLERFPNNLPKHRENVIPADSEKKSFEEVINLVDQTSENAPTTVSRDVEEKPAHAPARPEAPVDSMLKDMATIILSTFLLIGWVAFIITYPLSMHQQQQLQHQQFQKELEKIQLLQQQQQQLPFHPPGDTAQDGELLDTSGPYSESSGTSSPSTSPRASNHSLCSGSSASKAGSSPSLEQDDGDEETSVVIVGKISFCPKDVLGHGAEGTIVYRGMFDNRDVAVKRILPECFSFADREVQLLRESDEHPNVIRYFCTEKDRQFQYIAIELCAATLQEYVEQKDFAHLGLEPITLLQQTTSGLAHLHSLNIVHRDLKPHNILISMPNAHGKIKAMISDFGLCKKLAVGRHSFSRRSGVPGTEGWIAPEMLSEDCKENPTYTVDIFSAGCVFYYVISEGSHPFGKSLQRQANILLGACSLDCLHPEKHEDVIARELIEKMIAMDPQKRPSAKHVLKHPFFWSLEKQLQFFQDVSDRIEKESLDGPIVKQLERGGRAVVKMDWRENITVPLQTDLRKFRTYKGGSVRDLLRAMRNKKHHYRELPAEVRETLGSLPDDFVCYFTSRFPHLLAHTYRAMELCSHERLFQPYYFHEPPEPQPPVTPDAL
UniProt P11362, whole entry, looked up: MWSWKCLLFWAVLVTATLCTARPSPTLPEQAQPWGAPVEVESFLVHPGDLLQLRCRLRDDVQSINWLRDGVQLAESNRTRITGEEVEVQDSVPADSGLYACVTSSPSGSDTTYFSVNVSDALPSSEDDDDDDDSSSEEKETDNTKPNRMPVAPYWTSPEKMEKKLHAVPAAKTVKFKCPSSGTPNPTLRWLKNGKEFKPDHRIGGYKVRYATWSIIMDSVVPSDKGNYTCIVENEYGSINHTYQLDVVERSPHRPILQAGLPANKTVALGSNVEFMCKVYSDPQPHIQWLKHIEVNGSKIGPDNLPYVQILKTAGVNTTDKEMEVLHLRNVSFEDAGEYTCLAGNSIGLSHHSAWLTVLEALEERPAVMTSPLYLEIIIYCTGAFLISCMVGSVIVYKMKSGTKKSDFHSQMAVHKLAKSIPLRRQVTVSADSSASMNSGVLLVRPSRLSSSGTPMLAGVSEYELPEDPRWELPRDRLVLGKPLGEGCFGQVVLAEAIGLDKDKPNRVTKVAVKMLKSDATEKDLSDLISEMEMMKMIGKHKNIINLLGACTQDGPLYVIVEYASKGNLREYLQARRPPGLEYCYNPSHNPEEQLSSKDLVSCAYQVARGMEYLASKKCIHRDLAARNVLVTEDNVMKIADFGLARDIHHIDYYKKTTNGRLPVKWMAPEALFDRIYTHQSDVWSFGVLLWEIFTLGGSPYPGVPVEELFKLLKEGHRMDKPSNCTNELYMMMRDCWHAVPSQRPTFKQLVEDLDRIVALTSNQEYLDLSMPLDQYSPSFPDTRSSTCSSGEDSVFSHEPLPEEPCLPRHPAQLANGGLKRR
UniProt P36888, whole entry: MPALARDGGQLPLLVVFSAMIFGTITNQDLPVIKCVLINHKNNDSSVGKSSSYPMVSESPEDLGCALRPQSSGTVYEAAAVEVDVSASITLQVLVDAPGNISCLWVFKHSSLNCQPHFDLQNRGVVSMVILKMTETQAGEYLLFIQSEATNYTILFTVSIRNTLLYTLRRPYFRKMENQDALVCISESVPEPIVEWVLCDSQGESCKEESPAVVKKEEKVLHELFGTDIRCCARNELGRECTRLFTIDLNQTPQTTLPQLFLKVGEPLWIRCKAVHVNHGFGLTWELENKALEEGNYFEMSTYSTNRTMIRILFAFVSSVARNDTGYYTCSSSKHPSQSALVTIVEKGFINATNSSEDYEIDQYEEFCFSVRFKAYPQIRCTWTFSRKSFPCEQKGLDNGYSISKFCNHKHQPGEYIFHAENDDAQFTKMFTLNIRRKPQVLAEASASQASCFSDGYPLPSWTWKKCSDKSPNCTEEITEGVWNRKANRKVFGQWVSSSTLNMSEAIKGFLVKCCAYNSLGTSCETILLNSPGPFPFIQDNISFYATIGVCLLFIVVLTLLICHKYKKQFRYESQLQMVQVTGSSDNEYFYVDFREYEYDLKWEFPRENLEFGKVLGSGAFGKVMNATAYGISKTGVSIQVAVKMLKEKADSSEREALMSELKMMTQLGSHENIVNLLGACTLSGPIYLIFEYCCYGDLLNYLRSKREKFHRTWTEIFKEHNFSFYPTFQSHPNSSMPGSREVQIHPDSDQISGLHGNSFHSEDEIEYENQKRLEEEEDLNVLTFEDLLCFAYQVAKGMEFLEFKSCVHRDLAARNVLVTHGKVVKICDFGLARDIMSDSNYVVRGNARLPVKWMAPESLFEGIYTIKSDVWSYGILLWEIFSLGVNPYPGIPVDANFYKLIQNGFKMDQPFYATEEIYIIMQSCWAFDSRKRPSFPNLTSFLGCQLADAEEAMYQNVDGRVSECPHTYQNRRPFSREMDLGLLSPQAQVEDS
UniProt P06241, whole entry, looked up: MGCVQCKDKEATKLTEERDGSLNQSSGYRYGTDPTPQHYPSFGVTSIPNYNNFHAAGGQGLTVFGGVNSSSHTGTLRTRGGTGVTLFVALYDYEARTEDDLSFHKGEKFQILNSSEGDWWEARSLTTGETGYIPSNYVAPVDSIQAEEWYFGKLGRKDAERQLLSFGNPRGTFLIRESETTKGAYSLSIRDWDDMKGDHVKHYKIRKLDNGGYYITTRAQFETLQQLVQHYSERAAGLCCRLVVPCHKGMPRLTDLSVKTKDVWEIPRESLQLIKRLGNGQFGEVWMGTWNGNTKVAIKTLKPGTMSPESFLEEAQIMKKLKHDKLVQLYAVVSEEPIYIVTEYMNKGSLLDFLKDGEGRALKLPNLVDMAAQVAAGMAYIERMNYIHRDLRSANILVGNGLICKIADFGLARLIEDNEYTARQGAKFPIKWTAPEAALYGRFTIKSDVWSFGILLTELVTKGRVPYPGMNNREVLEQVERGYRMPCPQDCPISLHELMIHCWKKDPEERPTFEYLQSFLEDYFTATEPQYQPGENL
UniProt P49840: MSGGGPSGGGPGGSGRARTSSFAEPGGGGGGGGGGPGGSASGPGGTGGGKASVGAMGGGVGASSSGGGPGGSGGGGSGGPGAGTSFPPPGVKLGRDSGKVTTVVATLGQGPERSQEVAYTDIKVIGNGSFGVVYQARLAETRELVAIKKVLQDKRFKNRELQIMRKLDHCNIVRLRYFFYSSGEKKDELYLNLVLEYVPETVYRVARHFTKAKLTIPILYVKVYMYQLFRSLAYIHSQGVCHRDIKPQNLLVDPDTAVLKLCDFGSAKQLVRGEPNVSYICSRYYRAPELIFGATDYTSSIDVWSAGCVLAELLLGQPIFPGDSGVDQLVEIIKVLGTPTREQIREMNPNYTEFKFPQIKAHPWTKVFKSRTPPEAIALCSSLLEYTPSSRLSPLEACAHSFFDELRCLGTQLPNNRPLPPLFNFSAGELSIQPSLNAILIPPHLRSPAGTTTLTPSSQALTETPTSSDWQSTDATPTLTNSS
UniProt P14616: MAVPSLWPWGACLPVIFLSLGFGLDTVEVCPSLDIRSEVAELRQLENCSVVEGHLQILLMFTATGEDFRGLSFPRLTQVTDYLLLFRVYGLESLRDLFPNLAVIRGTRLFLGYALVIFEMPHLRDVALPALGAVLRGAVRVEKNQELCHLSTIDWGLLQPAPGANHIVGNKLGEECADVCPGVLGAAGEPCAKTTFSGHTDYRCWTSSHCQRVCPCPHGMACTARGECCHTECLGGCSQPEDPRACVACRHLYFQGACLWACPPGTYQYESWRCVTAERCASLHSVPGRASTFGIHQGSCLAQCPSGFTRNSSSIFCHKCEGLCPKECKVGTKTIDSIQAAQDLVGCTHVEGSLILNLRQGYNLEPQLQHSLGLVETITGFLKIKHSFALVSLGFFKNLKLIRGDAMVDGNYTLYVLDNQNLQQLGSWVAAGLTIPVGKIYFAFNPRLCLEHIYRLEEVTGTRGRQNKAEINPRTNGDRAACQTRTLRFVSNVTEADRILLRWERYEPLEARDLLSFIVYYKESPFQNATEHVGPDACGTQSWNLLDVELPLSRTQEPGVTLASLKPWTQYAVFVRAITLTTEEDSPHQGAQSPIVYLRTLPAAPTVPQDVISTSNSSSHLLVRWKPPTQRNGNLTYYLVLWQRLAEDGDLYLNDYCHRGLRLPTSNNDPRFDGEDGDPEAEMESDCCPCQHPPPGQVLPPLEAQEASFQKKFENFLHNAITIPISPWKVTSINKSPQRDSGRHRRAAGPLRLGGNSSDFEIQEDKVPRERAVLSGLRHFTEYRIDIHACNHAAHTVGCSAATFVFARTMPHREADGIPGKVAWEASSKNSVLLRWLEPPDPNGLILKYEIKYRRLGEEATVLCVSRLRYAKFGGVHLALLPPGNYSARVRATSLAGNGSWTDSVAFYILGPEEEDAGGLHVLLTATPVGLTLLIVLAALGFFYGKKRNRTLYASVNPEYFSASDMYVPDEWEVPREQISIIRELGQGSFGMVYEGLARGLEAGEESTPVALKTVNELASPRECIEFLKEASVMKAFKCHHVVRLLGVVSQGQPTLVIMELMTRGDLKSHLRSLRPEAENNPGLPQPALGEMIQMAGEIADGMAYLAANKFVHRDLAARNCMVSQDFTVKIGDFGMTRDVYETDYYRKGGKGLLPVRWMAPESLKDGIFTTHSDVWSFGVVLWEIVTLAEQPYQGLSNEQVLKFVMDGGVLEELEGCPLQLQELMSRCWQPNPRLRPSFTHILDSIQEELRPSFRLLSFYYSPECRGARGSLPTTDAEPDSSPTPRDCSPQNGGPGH

Columns and labels:
Test in all cases: kinase-Nluc reporter destabilization hit call (1 = scored as downregulated) (binary); higher = compound decreases kinase abundance
Conditions in all cases: K562; 2-18 h
EGFR = EGFR (UniProt P00533)
EGFR_G719S = EGFR_G719S (UniProt P00533)
EGFR_G719S_T790M = EGFR_G719S_T790M (UniProt P00533)
EGFR_L718V = EGFR_L718V (UniProt P00533)
EGFR_L858R = EGFR_L858R (UniProt P00533)
EGFR_L861Q = EGFR_L861Q (UniProt P00533)
EGFR_T790M = EGFR_T790M (UniProt P00533)
EPHA2 = EPHA2 (UniProt P29317)
ERBB3 = ERBB3 (UniProt P21860)
[1] = target: ERBB4_R711C (clone: ERBB4_mut) (UniProt Q15303)
ERN1 = ERN1 (UniProt O75460)
FGFR1 = FGFR1 (UniProt P11362)
FGFR2 = FGFR2 (UniProt P21802)
FGFR3 = FGFR3 (UniProt P22607)
FGR = FGR (UniProt P09769)
FLT3 = FLT3 (UniProt P36888)
FYN = FYN (UniProt P06241)
GSK3A = GSK3A (UniProt P49840)
HER2 = HER2 (UniProt P04626)
INSRR = INSRR (UniProt P14616)

Measured: kinase-Nluc reporter destabilization hit call

O=c1[nH]c2ccccc2n1C1CCN(CCCC(c2ccc(F)cc2)c2ccc(F)cc2)CC1 [Pimozide] (2.5 µM)
inactive: EGFR 0 | EGFR_G719S 0 | EGFR_G719S_T790M 0 | EGFR_L718V 0 | EGFR_L858R 0 | EGFR_L861Q 0 | EGFR_T790M 0 | EPHA2 = 0 | ERBB3 = 0 | [1] 0 | ERN1 = 0 | FGFR1 = 0 | FGFR2 = 0 | FGFR3 = 0 | FGR 0 | FLT3 = 0 | FYN 0 | GSK3A 0 | HER2 = 0 | INSRR 0

O=Cc1cn(Cc2ccc(Cl)cc2)c2ccccc12 [Oncrasin-1] (10 µM)
inactive: EGFR 0 | EGFR_G719S 0 | EGFR_G719S_T790M 0 | EGFR_L718V 0 | EGFR_L858R 0 | EGFR_L861Q 0 | EGFR_T790M 0 | EPHA2 = 0 | ERBB3 = 0 | [1] 0 | ERN1 = 0 | FGFR1 = 0 | FGFR2 = 0 | FGFR3 = 0 | FGR 0 | FLT3 = 0 | FYN 0 | GSK3A 0 | HER2 = 0 | INSRR 0

O=C1c2ccccc2C(=O)c2c1cccc2-c1cnn(C2CCNCC2)c1 [PDK4-IN-1 (hydrochloride)] (10 µM)
inactive: EGFR 0 | EGFR_G719S 0 | EGFR_G719S_T790M 0 | EGFR_L718V 0 | EGFR_L858R 0 | EGFR_L861Q 0 | EGFR_T790M 0 | EPHA2 = 0 | ERBB3 = 0 | [1] 0 | ERN1 = 0 | FGFR1 = 0 | FGFR2 = 0 | FGFR3 = 0 | FGR 0 | FLT3 = 0 | FYN 0 | GSK3A 0 | HER2 = 0 | INSRR 0

C[C@H](Nc1ncnc2[nH]cnc12)c1nc2ccc(F)cc2c(=O)n1-c1ccccc1 [Acalisib] (10 µM)
inactive: EGFR 0 | EGFR_G719S 0 | EGFR_G719S_T790M 0 | EGFR_L718V 0 | EGFR_L858R 0 | EGFR_L861Q 0 | EGFR_T790M 0 | EPHA2 = 0 | ERBB3 = 0 | [1] 0 | ERN1 = 0 | FGFR1 = 0 | FGFR2 = 0 | FGFR3 = 0 | FGR 0 | FLT3 = 0 | FYN 0 | GSK3A 0 | HER2 = 0 | INSRR 0

COc1ccc(/C=C/c2cc(OC)c(OC)c(OC)c2)cc1 (2.5 µM)
inactive: EGFR 0 | EGFR_G719S 0 | EGFR_G719S_T790M 0 | EGFR_L718V 0 | EGFR_L858R 0 | EGFR_L861Q 0 | EGFR_T790M 0 | EPHA2 = 0 | ERBB3 = 0 | [1] 0 | ERN1 = 0 | FGFR1 = 0 | FGFR2 = 0 | FGFR3 = 0 | FGR 0 | FLT3 = 0 | FYN 0 | GSK3A 0 | HER2 = 0 | INSRR 0

CCOC(=O)c1c(/C(C#N)=C\N)c2ccc(Cl)c(Cl)c2n1C (10 µM)
inactive: EGFR 0 | EGFR_G719S 0 | EGFR_G719S_T790M 0 | EGFR_L718V 0 | EGFR_L858R 0 | EGFR_L861Q 0 | EGFR_T790M 0 | EPHA2 = 0 | ERBB3 = 0 | [1] 0 | ERN1 = 0 | FGFR1 = 0 | FGFR2 = 0 | FGFR3 = 0 | FGR 0 | FLT3 = 0 | FYN 0 | GSK3A 0 | HER2 = 0 | INSRR 0

CCCS(=O)(=O)Nc1ccc(F)c(-n2cc(-c3cncnc3)c3nc(N(C)C4CCN(CC)CC4)ccc32)c1F (2 µM)
inactive: EGFR 0 | EGFR_G719S 0 | EGFR_G719S_T790M 0 | EGFR_L718V 0 | EGFR_L858R 0 | EGFR_L861Q 0 | EGFR_T790M 0 | EPHA2 = 0 | ERBB3 = 0 | [1] 0 | ERN1 = 0 | FGFR1 = 0 | FGFR2 = 0 | FGFR3 = 0 | FGR 0 | FLT3 = 0 | FYN 0 | GSK3A 0 | HER2 = 0 | INSRR 0

CC(=O)OC(C)(C)/C=C/C(=O)[C@](C)(O)[C@H]1[C@H](O)C[C@@]2(C)[C@@H]3CC=C4[C@@H](C=C(O)C(=O)C4(C)C)[C@]3(C)C(=O)C[C@]12C [Cucurbitacin E] (2.5 µM)
inactive: EGFR 0 | EGFR_G719S 0 | EGFR_G719S_T790M 0 | EGFR_L718V 0 | EGFR_L858R 0 | EGFR_L861Q 0 | EGFR_T790M 0 | EPHA2 = 0 | ERBB3 = 0 | [1] 0 | ERN1 = 0 | FGFR1 = 0 | FGFR2 = 0 | FGFR3 = 0 | FGR 0 | FLT3 = 0 | FYN 0 | GSK3A 0 | HER2 = 0 | INSRR 0

C[C@H]1CC[C@]2(NC1)O[C@H]1C[C@H]3[C@@H]4CC[C@H]5C[C@@H](O[C@@H]6O[C@H](CO)[C@H](O[C@@H]7O[C@H](CO)[C@@H](O)[C@H](O[C@@H]8OC[C@@H](O)[C@H](O)[C@H]8O)[C@H]7O[C@@H]7O[C@H](CO)[C@@H](O)[C@H](O)[C@H]7O)[C@H](O)[C@H]6O)CC[C@]5(C)[C@H]4CC[C@]3(C)[C@H]1[C@@H]2C [Tomatine] (2.5 µM)
inactive: EGFR 0 | EGFR_G719S 0 | EGFR_G719S_T790M 0 | EGFR_L718V 0 | EGFR_L858R 0 | EGFR_L861Q 0 | EGFR_T790M 0 | EPHA2 = 0 | ERBB3 = 0 | [1] 0 | ERN1 = 0 | FGFR2 = 0 | FGFR3 = 0 | FGR 0 | FLT3 = 0 | FYN 0 | GSK3A 0 | HER2 = 0 | INSRR 0
active: FGFR1 = 1

O=C(O)c1nn(Cc2ccc(Cl)cc2Cl)c2ccccc12 [Lonidamine] (10 µM)
inactive: EGFR 0 | EGFR_G719S 0 | EGFR_G719S_T790M 0 | EGFR_L718V 0 | EGFR_L858R 0 | EGFR_L861Q 0 | EGFR_T790M 0 | EPHA2 = 0 | ERBB3 = 0 | [1] 0 | ERN1 = 0 | FGFR1 = 0 | FGFR2 = 0 | FGFR3 = 0 | FGR 0 | FLT3 = 0 | FYN 0 | GSK3A 0 | HER2 = 0 | INSRR 0

Cc1[nH]ncc1-c1cc2nc([C@H]3CC4CCN3CC4)[nH]c(=O)c2s1 [(R)-Simurosertib] (10 µM)
inactive: EGFR 0 | EGFR_G719S 0 | EGFR_G719S_T790M 0 | EGFR_L718V 0 | EGFR_L858R 0 | EGFR_L861Q 0 | EGFR_T790M 0 | EPHA2 = 0 | ERBB3 = 0 | [1] 0 | ERN1 = 0 | FGFR1 = 0 | FGFR2 = 0 | FGFR3 = 0 | FGR 0 | FLT3 = 0 | FYN 0 | GSK3A 0 | HER2 = 0 | INSRR 0

CC(=O)Oc1ccc(/C=C/c2cc(OC(C)=O)cc(OC(C)=O)c2)cc1 [Triacetylresveratrol] (10 µM)
inactive: EGFR 0 | EGFR_G719S 0 | EGFR_G719S_T790M 0 | EGFR_L718V 0 | EGFR_L858R 0 | EGFR_L861Q 0 | EGFR_T790M 0 | EPHA2 = 0 | ERBB3 = 0 | [1] 0 | ERN1 = 0 | FGFR1 = 0 | FGFR2 = 0 | FGFR3 = 0 | FGR 0 | FLT3 = 0 | FYN 0 | GSK3A 0 | HER2 = 0 | INSRR 0

COC[C@H]1OC(=O)c2coc3c2[C@@]1(C)C1=C(C3=O)[C@@H]2CCC(=O)[C@@]2(C)C[C@H]1OC(C)=O [Wortmannin] (2.5 µM)
active: FYN 1
inactive: EGFR 0 | EGFR_G719S 0 | EGFR_G719S_T790M 0 | EGFR_L718V 0 | EGFR_L858R 0 | EGFR_L861Q 0 | EGFR_T790M 0 | EPHA2 = 0 | ERBB3 = 0 | [1] 0 | ERN1 = 0 | FGFR1 = 0 | FGFR2 = 0 | FGFR3 = 0 | FGR 0 | FLT3 = 0 | GSK3A 0 | HER2 = 0 | INSRR 0

O=C1C=CC[C@@H]2[C@H]3CCCN4CCC[C@@H](CN12)[C@@H]34 [Sophocarpine] (10 µM)
inactive: EGFR 0 | EGFR_G719S 0 | EGFR_G719S_T790M 0 | EGFR_L718V 0 | EGFR_L858R 0 | EGFR_L861Q 0 | EGFR_T790M 0 | EPHA2 = 0 | ERBB3 = 0 | [1] 0 | ERN1 = 0 | FGFR1 = 0 | FGFR2 = 0 | FGFR3 = 0 | FGR 0 | FLT3 = 0 | FYN 0 | GSK3A 0 | HER2 = 0 | INSRR 0
